Read-outs that look alike come from different tables or passages of the source.
What was measured:
[1] = rats, cited from earlier work
[2] = Sprague-Dawley, rat, in vivo, po, 3 mg/kg, mean ± SEM; for AUC(0-t): AUC0–t; for AUC(0-t) / AUC(0-inf) / Cmax / Tmax / Vd/F: rats; for AUC(0-inf): AUC0–∞; for half-life: t1/2, rats
[3] = humans; cited from earlier work
[4] = nifedipine suspended in water (10 mg/ml), oral dose 10 mg/kg
[5] = oral nifedipine 3 mg/kg 1 h after SY 0.95 g/kg
[6] = oral nifedipine 3 mg/kg 1 h after SY 1.9 g/kg
[7] = oral nifedipine 3 mg/kg, control

AUC(0-t) [2, 5]: 5200 ± 360 ng·h/mL
AUC(0-t) [2, 6]: 5300 ± 500 ng·h/mL
AUC(0-t) [2, 7]: 4300 ± 300 ng·h/mL
AUC(0-inf) [2, 5]: 5500 ± 340 ng·h/mL
AUC(0-inf) [2, 6]: 7100 ± 700 ng·h/mL
AUC(0-inf) [2, 7]: 4600 ± 300 ng·h/mL
Cmax [2, 5]: 3500 ± 340 ng/mL
Cmax [2, 6]: 2480 ± 110 ng/mL
Cmax [2, 7]: 2300 ± 190 ng/mL
Tmax [2, 5]: 15 min
Tmax [2, 6]: 19.8 ± 3 min
Tmax [2, 7]: 25.2 ± 3 min
Vd/F [2, 5]: 1.32 ± 0.19 L/kg
Vd/F [2, 6]: 1.73 ± 0.26 L/kg
half-life [2, 5]: 102 ± 12 min
half-life [2, 6]: 174 ± 30 min
half-life [2, 7]: 72 ± 12 min
SMILES: COC(=O)C1=C(C)NC(C)=C(C(=O)OC)C1c1ccccc1[N+](=O)[O-] [Nifedipine, nifedipine, reference compound]
Tmax ([1]; nifedipine prepared using PEG): 15 to 28.2 min
Tmax [1, 4]: 42.6 min
half-life (terminal) [1, 4]: 9.7 h
absolute bioavailability [3]: 40–50%
